PubChem BioAssay AID686937 – Drosophila RNAi Screening Center – 2013

Test: 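Genes in the fly needed for secretion of protein constitutively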 (primary screen)
System: Drosophila S2 cells expressing secreted horseradish peroxidase
Knock-down reagent: long dsRNA against Drosophila genes
Timing: about 5.5 days (5 days dsRNA, then 12 h reporter induction)
Treatment: reporter expression induced after 5 days of dsRNA, read 12 h later; inducer not stated
Measured: 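Chemiluminescent measurement of peroxidase in the medium 12 h after reporter induction, following 5 days of dsRNA, given as a z-score per plate; higher means more secretion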
Scale: z-score: higher = more reporter secreted into medium
The screen tested about 23,000 reagents; below is an unselected part of those that have a named target and a result. 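Reduced-secretion tags in replicate 1 do not always agree with the z-scores; no criterion for assigning the tags was given.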 A plus sign joins genes that one reagent is predicted to hit. Not all columns of the deposit are shown. The record does not give: the amount of reagent.

z-score, replicate 1, by target gene and reagent
CG2901 (GeneID 31338): DRSC18239 0.53
Elp5 (GeneID 38287): DRSC08547 0.14
CG34224 (GeneID 5740585): DRSC05269 -0.19
CG9184 (GeneID 38152): DRSC08636 0.47; DRSC22184 -0.42
Vha36-1 (GeneID 44702): DRSC07098 0.61
Or10a (GeneID 32086): DRSC20264 0.35
CR43999 (retired record) (GeneID 14462515): DRSC14605 0.33
Cyp309a1 (GeneID 33438): DRSC00747 0.41
CG8349 (GeneID 34124): DRSC03083 0.46
CG7990 (GeneID 32909): DRSC19296 0.62; DRSC20069 0.16
CG13743 (GeneID 35911): DRSC05139 0.82; DRSC06414 -0.35; DRSC22775 0.06
Mlc-c (GeneID 31474): DRSC18683 0.39
CG12684 (GeneID 31390): DRSC17875 0.28
Sec23 (GeneID 40694): DRSC12387 -3.16
Eig71Eh (GeneID 39709): DRSC11155 0.29
Cpr66Cb (GeneID 38940): DRSC10769 -0.23
CG6356 (GeneID 42893): DRSC16026 0.37
CG10348 (GeneID 35132): DRSC02043 0.34; DRSC21908 0.93
CG4151 (GeneID 31465): DRSC18351 0.28
TwdlJ (GeneID 43206): DRSC15812 0.55
gukh (GeneID 53563): DRSC14768 0.35; DRSC15806 0.24; DRSC15944 0.31
CG32983 (GeneID 50434): DRSC22367 0.21
CG31835 + CG42585: DRSC01412 -0.18
ldd (GeneID 318066): DRSC20558 0.44; DRSC22696 -0.92
su(Hw) (GeneID 41740): DRSC17074 0.21
Ugt35D1 (GeneID 43708): DRSC15107 0.3
Cyp305a1 (GeneID 40161): DRSC11126 0.38

3 of these entries in another layout.
{"Target gene": "Eig71Eh (GeneID 39709)", "dsRNA": "DRSC11155", "z-score, replicate 1": 0.29}
{"Target gene": "Cpr66Cb (GeneID 38940)", "dsRNA": "DRSC10769", "z-score, replicate 1": -0.23}
{"Target gene": "CG6356 (GeneID 42893)", "dsRNA": "DRSC16026", "z-score, replicate 1": 0.37}

Next reagents follow:
z-score, replicate 1, by target gene and reagent
mgr (GeneID 41365): DRSC16099 0.09
pHCl-1 (GeneID 39730): DRSC09401 0.12; DRSC09888 0.22; DRSC09991 0.46; DRSC10589 0.47
obst-G (GeneID 39355): DRSC11103 0.07
Dh44-R1 (GeneID 36601): DRSC07172 0.48
CG17687 (GeneID 39495): DRSC10279 0.19
Sema1a (GeneID 34192): DRSC03433 0.38
vlc (GeneID 46078): DRSC04922 0.03
bsh (GeneID 35266): DRSC03498 0.78
obst-J (GeneID 40202): DRSC10821 0.31
CG6867 (GeneID 32782): DRSC20013 0.16
Hen1 (GeneID 36301): DRSC06139 0.4; DRSC06140 0.24
CG1418 (GeneID 36035): DRSC06447 0.11
CG17010 (GeneID 34650): DRSC02559 0.17
Obp57e (GeneID 326110): DRSC05891 1.05
Polr3K + Tcs1: DRSC05988 0.49
CR33317 (GeneID 8674083): DRSC02653 0.27
CG10222 (GeneID 39504): DRSC09714 0.02
